Screen size: about 330,000 compounds; about 100 (0.03%) were called active. Inconclusive results, whose numbers are uncertain, are shown with a selection of clear calls. Calls come from the whole dose curve; as a rule, active = well fitted inhibition curve with a large enough effect; inconclusive = small, poorly fitted or top-dose-only effect; inactive = flat fitted curve, though single readings scatter. A potency beside an inconclusive call is a rough fit, not a confirmed value.
Tested on: Chaperonin Mm-Cpn (Methanococcus maripaludis)
Assay: Inhibitors of TCP-1 ring complex (TRiC) of Methanococcus maripaludis (MmCpn): qHTS; note: nearly all actives have a fitted effect of over 80% in size;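 for potency: enzyme at 25 nM with ATP substrate at 10 µM during the reaction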
Conditions: purified Mm-Cpn ATPase, ADP Transcreener TR-FRET; series mostly up to 76.9 µM; activity, negative = inhibition: at the top concentration
Method in brief: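 TR-FRET (320 nm excitation; 590 and 665 nm emission) reports ADP made from 10 uM ATP by 25 nM enzyme; compounds were preincubated 10 min, reaction run 30 min, both at 37°C.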
% is set by controls: 0 for no effect and ±100 for the full control effect; potency is the fitted concentration of half-maximal effect.

Compound	Potency	activity, negative = inhibition
O=C1CCCN1CN(C(=O)c1ccc2c(c1)OCO2)c1cccc(Cl)c1	inconclusive: 6.31 µM [inhibitor, single point]	
COC(=O)c1c(NC(=S)Nc2cc(OC)c(Cl)cc2OC)sc2c1CCCCC2	inconclusive: 224 µM [inhibitor, partial curve, poor fit]	
CCOC(=O)c1csc(NC(=O)CSc2nnnn2-c2ccc(OC)cc2)n1	inconclusive: 63.1 µM [inhibitor, single point]	
Brc1ccc(OCCCCCN2CCOCC2)cc1	inconclusive: 50.1 µM [inhibitor, single point]	
CCOC(=O)C1CCN(C(=O)c2[nH]c3ccc(OC)cc3c2C)CC1	inconclusive: 100 µM [inhibitor, single point]	
CC(C)Nc1nc(NC(N)=S)nc(NC(C)(C)C)n1	inconclusive: 63.1 µM [inhibitor, single point]	
C=CCn1c(=N)n(CC(=O)OCC)c2ccccc21	inconclusive: 79.4 µM [inhibitor, single point]	
COC(=O)c1cc2cc(Cl)ccc2nc1SC	inconclusive: 100 µM [inhibitor, single point]	
O=C(COc1c(Cl)cccc1Cl)NN1C(=O)CSC1=S	inconclusive: 22.4 µM [inhibitor, single point]	
COC(=O)c1cccc(NC(=O)Cc2nc(-c3ccccc3)sc2-c2ccc(C)cc2)c1	active: 50.1 µM	
CC(C)Cc1nc(N2CCN(C(=O)C(C)C)CC2)c(C#N)c2c1CCC2		inactive: -1.14%
O=C(CSc1nnc(SCc2cccc3ccccc23)s1)c1ccc2c(c1)OCO2	active: 44.7 µM	
Cc1nc(SCc2nc3c(C)cccc3[nH]2)c2oc3ccccc3c2n1	inconclusive: 17.8 µM [inhibitor, single point]	
Cc1ccc(C)c(OCC(=O)O/N=C(\N)c2cccc([N+](=O)[O-])c2)c1	inconclusive: 15.8 µM [inhibitor, single point]	
Cn1c(CN2CCCC2)nc2cc(NC(=O)Nc3ccccc3)ccc21		inactive: 2.8%
CCCOc1cccc(C(=O)N/N=C/c2coc3ccccc3c2=O)c1		inactive: 0.771%
O=Cc1cc(CCC(=O)O)ccc1O	inconclusive: 15.8 µM [inhibitor, single point]	
CC1CC(C)(C)CC2(C1)NC(=O)N(CC(=O)Nc1ccc3[nH]c(=O)[nH]c3c1)C2=O (configuration not stated)	inconclusive: 100 µM [inhibitor, single point]	
O=C1/C(=C/c2ccc(F)cc2)Oc2cc(OC(=O)N3CCOCC3)ccc21		inactive: 2.56%
COc1ccc(-c2csc(=NCCO)n2-c2ccccc2)cc1	inconclusive: 100 µM [inhibitor, single point]	
Cc1nc2ncnn2c(C)c1CCC(=O)N1CCc2ccccc21	inconclusive: 44.7 µM [inhibitor, single point]	
C#CCOCCOCCOCCNc1nc(N2CCN(C(=O)CCCCCCCCCCNC(=O)[C@H](CCCN=C(N)N)n3cc(C[C@@H](C)CC)nn3)CC2)nc(N2CCN(C(=O)CCCCCCCCCCNC(=O)[C@@H]([C@H](C)CC)n3cc(CCCCCN)nn3)CC2)n1	inconclusive: 56.2 µM [inhibitor, single point]	
COc1ccc(NC(=O)CN2CCN(c3ccccn3)CC2)cc1Cl	inconclusive: 63.1 µM [inhibitor, single point]	

Individual results from the results shown:
Entry of COc1ccc(NC(=O)CN2CCN(c3ccccn3)CC2)cc1Cl under Potency: inconclusive: 63.1 µM [inhibitor, single point]
Entry of Cc1nc(SCc2nc3c(C)cccc3[nH]2)c2oc3ccccc3c2n1 under Potency: inconclusive: 17.8 µM [inhibitor, single point]
Entry of O=C(COc1c(Cl)cccc1Cl)NN1C(=O)CSC1=S under Potency: inconclusive: 22.4 µM [inhibitor, single point]
Entry of CCOC(=O)c1csc(NC(=O)CSc2nnnn2-c2ccc(OC)cc2)n1 under Potency: inconclusive: 63.1 µM [inhibitor, single point]

Continuation:

Compound	Potency	activity, negative = inhibition
CC(Oc1cccc(Cl)c1)C(=O)Nc1ccc([N+](=O)[O-])cn1 (configuration not stated)		inactive: -1.41%
CCOc1ccc(CCNC(=O)C2CC(=O)N(CCc3ccc(OC)c(OC)c3)C2)cc1OCC (configuration not stated)	inconclusive: 12.6 µM [inhibitor, single point]	
O=c1oc2ccccc2c(O)c1Cc1cc(Cl)c2cccnc2c1O	inconclusive: 100 µM [inhibitor, single point]	
O=C1NC(c2ccncc2)Nc2sc3c(c21)CCCC3 (configuration not stated)	inconclusive: 79.4 µM [inhibitor, single point]	
CCSc1nc2c(sc3ccccc32)c(=O)n1C(C)C	inconclusive: 89.1 µM [inhibitor, single point]	
O=C(c1ccco1)N1CCN(C(=O)c2cc3c(s2)-c2ccccc2OC3)CC1	inconclusive: 1120 µM [inhibitor, partial curve, poor fit]	
CCOc1ccc(S(=O)(=O)NCCC(=O)NCCOc2ccccc2)cc1	inconclusive: 20 µM [inhibitor, single point]	
O=C(Nc1nccs1)C1CCCN(S(=O)(=O)c2cccnc2)C1 (configuration not stated)	inconclusive: 22.4 µM [inhibitor, single point]	
CC(C)(C)c1ccc(/C=N/Nc2ccc(C(=O)O)cc2)cc1		inactive: 0.959%
CC(=O)N1CCN(c2nc(-c3cccs3)nc3ccccc23)CC1	inconclusive: 11.2 µM [inhibitor, single point]	
COc1ccc(N(C)C(=O)c2ccc3c(Cl)c4c(nc3c2)CCCC4)c(OC)c1		inactive: 1.41%
N#CCCN(CCC#N)S(=O)(=O)c1ccc(C(=O)Nc2nc(-c3ccccc3)c(C(=O)c3ccccc3)s2)cc1	inconclusive: 79.4 µM [inhibitor, partial curve, poor fit]	
COc1cccc(OC)c1C(=O)Nc1nc(COc2ccccc2)cs1	inconclusive: 112 µM [inhibitor, partial curve, poor fit]	
O=C(Nc1nnc(Cc2ccccc2)s1)c1cccs1	inconclusive: 89.1 µM [inhibitor, single point]	
Cc1ccc(NC(=O)C(OC(=O)c2ccc(F)cc2)c2ccccc2)cc1Cl (configuration not stated)	inconclusive: 22.4 µM [inhibitor, single point]	
Nc1ccc(-c2nc3ccc(C(=O)O)cc3s2)cc1	inconclusive: 316 µM [inhibitor, partial curve, poor fit]	
CCOc1ccc(C(=O)C(C)OC(=O)Cn2[nH]c(=O)c3ccccc3c2=O)cc1 (configuration not stated)		inactive: -2.56%
CCN(CC(=O)Nc1ccccc1C(F)(F)F)C(=O)c1ccccc1Cc1ccccc1	inconclusive: 22.4 µM [inhibitor, single point]	
COc1ccc(OC)c(S(=O)(=O)N2CCC(C(=O)NCC3CCCO3)CC2)c1 (configuration not stated)	inconclusive: 100 µM [inhibitor, single point]	
O=C(O)c1ccc(N/N=C/C=C/c2ccccc2)cc1		inactive: -4.3%
CCCCn1c(C)csc1=Nc1cccnc1	inconclusive: 100 µM [inhibitor, single point]	
N/C(=N\OC(=O)Cc1cccs1)c1cccc([N+](=O)[O-])c1	inconclusive: 70.8 µM [inhibitor, single point]	
Clc1cccc(Sc2ccc(-c3ccccn3)s2)c1	inconclusive: 70.8 µM [inhibitor, partial curve, poor fit]	

Compound	Potency	activity, negative = inhibition
O=C1CSc2ccc(S(=O)(=O)NCc3ccccc3Cl)cc2N1	inconclusive: 56.2 µM [inhibitor, single point]	
CC(Sc1nc(N2CCOCC2)c2c(c1C#N)CC(C)(C)OC2)C(=O)Nc1ccccc1 (configuration not stated)		inactive: -3.01%
O=C(Nc1nnc(-c2ccc(Cl)cc2)o1)Nc1ccccc1Cl		inactive: 2%
O=C(N/N=C/c1cccs1)c1cc(-c2ccncc2)nc2ccccc12		inactive: 0.239%
CCc1c(C)sc(NC(=O)c2cccs2)c1C#N	inconclusive: 44.7 µM [inhibitor, single point]	
CO/N=C/C(=N\Nc1ccc(OC)cc1)C(=O)c1ccc(OC)cc1		inactive: -0.883%
O=C1OCCN1C(=O)[C@H]1[C@H](c2ccc(F)cc2)C(c2ccccc2)=NN1c1ccccc1	inconclusive: 28.2 µM [inhibitor, single point]	
CCCC(=O)Nc1c(-c2ccc(OC)cc2)c(=O)c2ccccc2n1C	inconclusive: 22.4 µM [inhibitor, single point]	
Cc1noc(C)c1COc1cccc(C(=O)N2CCN(C/C=C/c3ccccc3)CC2)c1	inconclusive: 100 µM [inhibitor, partial curve, poor fit]	
Cc1cc(F)ccc1S(=O)(=O)N1CCCOC1CNC(=O)C(=O)NCCc1ccccc1 (configuration not stated)	inconclusive: 17.8 µM [inhibitor, single point]	
CCOc1ccc2nc(NC(=O)CS(=O)(=O)c3ccccc3)sc2c1		inactive: -0.47%
Cc1ccc(NC(=O)CSc2nnc(-c3cnccn3)n2-c2ccccc2)cc1	inconclusive: 79.4 µM [inhibitor, single point]	
N#Cc1cc(NC(=O)c2ccc(F)cc2)c(=O)n2c1[nH]c1ccccc12		inactive: 0.873%
COc1ccccc1NC(=O)c1ccc(NC(=O)COC(=O)CCC2CCCC2)cc1	inconclusive: 100 µM [inhibitor, single point]	
O=C1CS(=O)(=O)N(Cc2ccccc2F)c2ccc(Br)cc21	inconclusive: 25.1 µM [inhibitor, single point]	
Cc1nc(N2CCN(Cc3ccc4c(c3)OCO4)CC2)nc2c1C(=O)CC(c1ccco1)C2 (configuration not stated)	inconclusive: 17.8 µM [inhibitor, single point]	
COc1ccc(CCN2CC(C(=O)NCc3cccc4[nH]ccc34)CCC2=O)cc1 (configuration not stated)		inactive: -0.94%
CCN(CC(=O)Nc1c(F)cccc1F)C(=O)CCSc1ccc(F)cc1	inconclusive: 20 µM [inhibitor, single point]	
Cn1c2ccccc2c(=O)c2ccc(C#Cc3ccccn3)cc21	inconclusive: 178 µM [inhibitor, partial curve, poor fit]	
COc1ccc(CCNC(=O)c2cc(S(=O)(=O)N3CCCCC3)ccc2Cl)cc1		inactive: -0.234%
CCCCS(=O)(=O)N1CCCC(C(=O)Oc2ccccc2)C1 (configuration not stated)	inconclusive: 63.1 µM [inhibitor, single point]	

Source: PubChem BioAssay AID504842 (National Center for Advancing Translational Sciences (NCATS), 2011)
